Source: the supplement of paper PMC10849652
Some of the results follow.

Sequences of proteins named here, by UniProt entry; tags and fusion partners are left off. A change or cut given only in a name is not applied to a line headed by its entry.
UniProt P57682: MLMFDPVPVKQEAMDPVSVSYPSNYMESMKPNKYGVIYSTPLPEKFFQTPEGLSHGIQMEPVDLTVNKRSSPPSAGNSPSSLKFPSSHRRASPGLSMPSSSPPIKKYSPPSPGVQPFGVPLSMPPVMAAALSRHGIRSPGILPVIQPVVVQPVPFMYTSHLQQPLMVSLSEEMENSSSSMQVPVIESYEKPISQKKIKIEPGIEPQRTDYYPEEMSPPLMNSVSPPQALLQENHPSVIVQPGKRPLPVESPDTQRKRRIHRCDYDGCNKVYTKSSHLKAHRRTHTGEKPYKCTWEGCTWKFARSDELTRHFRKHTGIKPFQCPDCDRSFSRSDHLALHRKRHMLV
UniProt Q02241: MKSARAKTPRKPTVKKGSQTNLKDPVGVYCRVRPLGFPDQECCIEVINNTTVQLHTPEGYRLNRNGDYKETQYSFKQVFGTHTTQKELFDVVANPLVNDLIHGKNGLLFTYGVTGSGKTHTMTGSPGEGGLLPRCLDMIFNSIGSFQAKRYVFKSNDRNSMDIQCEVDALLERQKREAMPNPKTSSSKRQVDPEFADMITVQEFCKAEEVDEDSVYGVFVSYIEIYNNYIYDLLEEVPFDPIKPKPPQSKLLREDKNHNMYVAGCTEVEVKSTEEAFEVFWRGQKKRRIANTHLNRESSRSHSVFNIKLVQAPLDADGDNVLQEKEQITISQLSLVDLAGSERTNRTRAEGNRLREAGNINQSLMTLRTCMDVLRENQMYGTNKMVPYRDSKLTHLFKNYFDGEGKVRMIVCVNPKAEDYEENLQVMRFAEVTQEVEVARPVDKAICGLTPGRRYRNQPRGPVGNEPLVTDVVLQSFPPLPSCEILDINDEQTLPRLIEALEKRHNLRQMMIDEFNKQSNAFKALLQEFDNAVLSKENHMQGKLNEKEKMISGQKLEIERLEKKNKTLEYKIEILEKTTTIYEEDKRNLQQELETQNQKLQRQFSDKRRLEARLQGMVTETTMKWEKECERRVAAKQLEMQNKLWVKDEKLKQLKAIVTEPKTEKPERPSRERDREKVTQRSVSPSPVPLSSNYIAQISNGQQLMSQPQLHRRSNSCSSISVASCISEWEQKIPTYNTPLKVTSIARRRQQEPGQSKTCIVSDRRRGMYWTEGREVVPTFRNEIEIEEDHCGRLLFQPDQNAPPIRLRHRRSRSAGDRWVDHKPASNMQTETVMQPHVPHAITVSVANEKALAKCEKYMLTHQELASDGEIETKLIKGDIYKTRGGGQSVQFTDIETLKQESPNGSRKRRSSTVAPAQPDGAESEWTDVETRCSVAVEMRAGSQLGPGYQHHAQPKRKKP
UniProt Q9BQ90: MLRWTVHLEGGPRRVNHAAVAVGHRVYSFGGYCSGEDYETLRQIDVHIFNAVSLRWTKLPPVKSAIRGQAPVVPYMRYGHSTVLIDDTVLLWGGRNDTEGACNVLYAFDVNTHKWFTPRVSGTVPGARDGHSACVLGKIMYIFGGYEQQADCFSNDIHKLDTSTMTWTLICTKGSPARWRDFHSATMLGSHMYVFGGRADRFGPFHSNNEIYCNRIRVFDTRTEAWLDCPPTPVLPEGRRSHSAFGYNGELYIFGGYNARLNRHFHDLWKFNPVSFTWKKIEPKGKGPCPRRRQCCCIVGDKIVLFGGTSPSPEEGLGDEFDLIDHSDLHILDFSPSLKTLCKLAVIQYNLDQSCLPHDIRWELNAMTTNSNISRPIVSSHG
UniProt Q96A73: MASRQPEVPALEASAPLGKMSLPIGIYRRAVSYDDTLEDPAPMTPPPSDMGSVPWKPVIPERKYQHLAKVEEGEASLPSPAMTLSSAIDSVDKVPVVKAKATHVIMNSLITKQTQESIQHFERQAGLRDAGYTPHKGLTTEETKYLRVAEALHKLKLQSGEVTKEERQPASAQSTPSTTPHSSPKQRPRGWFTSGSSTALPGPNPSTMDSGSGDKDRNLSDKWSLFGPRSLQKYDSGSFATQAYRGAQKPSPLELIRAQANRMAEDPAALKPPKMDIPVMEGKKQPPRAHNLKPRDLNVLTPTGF
UniProt Q99661: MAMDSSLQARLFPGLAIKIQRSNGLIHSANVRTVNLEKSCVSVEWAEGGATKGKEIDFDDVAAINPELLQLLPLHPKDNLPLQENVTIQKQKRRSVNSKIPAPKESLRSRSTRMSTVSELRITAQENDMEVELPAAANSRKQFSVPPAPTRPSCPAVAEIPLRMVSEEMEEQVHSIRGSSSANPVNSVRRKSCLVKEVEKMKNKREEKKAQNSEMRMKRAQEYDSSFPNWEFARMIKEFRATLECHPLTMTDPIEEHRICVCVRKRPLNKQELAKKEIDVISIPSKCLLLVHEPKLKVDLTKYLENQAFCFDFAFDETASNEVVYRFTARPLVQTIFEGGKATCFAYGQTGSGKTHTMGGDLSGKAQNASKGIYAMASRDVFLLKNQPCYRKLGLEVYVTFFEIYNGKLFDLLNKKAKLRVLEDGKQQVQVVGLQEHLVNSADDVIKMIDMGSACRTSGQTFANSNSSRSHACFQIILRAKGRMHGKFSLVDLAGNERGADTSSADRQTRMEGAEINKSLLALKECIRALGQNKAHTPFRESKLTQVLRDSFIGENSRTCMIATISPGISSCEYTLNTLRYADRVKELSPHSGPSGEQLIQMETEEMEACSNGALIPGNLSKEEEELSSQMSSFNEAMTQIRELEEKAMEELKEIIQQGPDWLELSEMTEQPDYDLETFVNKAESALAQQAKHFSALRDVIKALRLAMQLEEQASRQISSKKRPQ
UniProt A8MWY0: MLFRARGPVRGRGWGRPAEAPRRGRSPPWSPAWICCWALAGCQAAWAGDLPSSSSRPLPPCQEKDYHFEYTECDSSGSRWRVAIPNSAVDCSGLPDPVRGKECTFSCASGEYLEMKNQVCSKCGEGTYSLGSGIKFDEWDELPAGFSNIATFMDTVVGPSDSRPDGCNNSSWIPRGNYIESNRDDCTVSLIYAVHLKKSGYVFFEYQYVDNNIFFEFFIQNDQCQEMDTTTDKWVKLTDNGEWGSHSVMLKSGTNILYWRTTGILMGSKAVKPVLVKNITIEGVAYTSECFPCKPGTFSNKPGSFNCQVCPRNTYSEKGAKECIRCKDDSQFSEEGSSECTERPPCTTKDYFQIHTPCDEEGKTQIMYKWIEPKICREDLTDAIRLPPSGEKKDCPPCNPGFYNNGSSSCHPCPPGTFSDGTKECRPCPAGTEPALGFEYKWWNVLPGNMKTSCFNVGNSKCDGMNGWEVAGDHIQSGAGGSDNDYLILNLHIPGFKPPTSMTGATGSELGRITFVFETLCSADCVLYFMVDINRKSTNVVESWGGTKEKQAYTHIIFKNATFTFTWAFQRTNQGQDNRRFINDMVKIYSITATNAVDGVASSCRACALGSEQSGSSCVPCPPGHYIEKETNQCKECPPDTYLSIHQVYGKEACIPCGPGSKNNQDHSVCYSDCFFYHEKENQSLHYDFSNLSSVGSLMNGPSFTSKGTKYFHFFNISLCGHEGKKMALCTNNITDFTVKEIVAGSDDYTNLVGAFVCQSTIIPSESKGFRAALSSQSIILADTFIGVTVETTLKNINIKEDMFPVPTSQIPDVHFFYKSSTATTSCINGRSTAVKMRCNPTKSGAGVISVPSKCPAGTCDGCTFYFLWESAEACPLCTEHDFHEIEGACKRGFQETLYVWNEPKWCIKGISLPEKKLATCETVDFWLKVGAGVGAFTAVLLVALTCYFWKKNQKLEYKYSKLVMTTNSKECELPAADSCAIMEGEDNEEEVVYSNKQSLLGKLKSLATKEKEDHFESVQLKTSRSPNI
UniProt Q9NVX7: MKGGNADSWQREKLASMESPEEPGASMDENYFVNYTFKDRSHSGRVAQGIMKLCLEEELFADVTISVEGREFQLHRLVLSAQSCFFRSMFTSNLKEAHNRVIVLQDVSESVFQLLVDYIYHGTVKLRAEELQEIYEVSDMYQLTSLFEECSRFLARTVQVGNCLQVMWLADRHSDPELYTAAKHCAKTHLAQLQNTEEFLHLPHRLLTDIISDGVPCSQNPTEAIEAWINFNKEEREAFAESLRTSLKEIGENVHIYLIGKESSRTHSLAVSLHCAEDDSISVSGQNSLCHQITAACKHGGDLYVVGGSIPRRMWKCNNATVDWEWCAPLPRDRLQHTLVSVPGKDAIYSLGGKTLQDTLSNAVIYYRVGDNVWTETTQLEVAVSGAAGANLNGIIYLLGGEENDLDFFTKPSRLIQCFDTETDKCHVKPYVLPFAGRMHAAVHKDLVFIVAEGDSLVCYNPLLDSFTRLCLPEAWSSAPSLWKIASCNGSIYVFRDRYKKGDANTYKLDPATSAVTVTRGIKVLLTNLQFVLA
UniProt Q9P206: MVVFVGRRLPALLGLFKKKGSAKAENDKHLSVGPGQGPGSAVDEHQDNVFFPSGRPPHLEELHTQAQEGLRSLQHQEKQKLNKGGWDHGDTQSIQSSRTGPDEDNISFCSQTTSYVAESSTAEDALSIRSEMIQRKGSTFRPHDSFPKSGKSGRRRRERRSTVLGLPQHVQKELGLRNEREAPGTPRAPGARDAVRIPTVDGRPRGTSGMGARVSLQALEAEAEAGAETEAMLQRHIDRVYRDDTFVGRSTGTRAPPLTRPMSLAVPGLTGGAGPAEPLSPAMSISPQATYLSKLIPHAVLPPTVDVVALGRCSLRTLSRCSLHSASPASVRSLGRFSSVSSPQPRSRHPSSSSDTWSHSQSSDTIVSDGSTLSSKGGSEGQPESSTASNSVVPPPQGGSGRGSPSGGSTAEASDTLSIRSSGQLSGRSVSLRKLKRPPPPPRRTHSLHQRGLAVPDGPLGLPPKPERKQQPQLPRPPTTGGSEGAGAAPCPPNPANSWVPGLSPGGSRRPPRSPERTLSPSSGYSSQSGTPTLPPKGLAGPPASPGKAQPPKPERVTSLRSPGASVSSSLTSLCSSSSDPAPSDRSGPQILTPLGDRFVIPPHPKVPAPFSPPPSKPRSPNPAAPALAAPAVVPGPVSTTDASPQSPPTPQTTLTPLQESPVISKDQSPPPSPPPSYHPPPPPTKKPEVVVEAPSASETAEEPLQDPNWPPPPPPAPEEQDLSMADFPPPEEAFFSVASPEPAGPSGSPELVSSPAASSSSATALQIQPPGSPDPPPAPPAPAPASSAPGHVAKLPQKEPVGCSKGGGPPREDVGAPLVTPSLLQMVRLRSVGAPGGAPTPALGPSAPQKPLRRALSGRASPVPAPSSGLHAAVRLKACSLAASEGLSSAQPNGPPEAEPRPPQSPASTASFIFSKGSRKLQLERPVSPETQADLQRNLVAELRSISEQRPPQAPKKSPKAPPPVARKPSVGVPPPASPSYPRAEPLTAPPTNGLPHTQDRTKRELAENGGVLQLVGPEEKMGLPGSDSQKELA
UniProt Q9UK76: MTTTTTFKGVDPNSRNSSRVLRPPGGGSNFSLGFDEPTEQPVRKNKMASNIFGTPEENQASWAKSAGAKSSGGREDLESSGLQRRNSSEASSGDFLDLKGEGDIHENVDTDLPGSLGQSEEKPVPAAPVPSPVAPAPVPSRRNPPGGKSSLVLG
UniProt Q9H0B6: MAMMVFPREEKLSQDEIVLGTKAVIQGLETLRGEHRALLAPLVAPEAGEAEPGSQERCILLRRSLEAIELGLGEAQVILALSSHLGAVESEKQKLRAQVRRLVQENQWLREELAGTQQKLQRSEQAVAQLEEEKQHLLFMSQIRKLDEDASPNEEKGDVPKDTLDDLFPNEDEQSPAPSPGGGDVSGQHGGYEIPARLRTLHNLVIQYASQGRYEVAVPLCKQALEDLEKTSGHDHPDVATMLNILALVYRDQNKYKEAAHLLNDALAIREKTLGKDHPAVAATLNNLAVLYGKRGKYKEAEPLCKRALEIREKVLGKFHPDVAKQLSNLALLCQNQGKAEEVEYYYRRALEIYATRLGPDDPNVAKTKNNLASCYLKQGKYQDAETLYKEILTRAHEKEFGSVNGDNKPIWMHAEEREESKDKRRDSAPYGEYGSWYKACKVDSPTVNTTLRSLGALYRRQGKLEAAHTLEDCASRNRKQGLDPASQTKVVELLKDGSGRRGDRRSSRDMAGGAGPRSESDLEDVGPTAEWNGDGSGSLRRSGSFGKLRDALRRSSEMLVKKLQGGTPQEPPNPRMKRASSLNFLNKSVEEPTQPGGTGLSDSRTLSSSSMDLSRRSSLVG
UniProt P17275: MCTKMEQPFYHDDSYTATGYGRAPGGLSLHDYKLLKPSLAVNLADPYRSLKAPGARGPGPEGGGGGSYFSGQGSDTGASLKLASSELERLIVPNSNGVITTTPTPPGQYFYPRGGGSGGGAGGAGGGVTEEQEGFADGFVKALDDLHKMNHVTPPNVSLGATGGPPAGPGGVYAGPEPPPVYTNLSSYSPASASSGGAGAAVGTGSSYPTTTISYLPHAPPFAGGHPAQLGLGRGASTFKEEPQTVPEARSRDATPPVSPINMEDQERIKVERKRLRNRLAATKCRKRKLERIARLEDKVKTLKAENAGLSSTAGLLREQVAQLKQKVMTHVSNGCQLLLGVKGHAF

Legend:
Assay in all cases: log2 fold change, soluble protein after heating vs DMSO (PISA); higher = thermal stabilisation; K562 cells, 10 uM, 30 min; active = over 0.2 and 3.5 SD of the protein, either way, in both replicates (recomputed)
erlotinib = compound: C#Cc1cccc(Nc2ncnc3cc(OCCOC)c(OCCOC)cc23)c1 [erlotinib]
Outline: (§1)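 K562 cells (2×10^6 cells/mL) were treated with 10 μM compound for 30 min, and aliquots were heated for 3 min over 48°C-58°C. Pooled aliquots were extracted in PBS with 0.5% NP-40 at 4°C, and the supernatant after 21,000xg for 90 min was measured by TMTpro 16plex LC-MS/MS with channel sums equalised. Reported thermal stability, relative to control samples and from duplicates, is a log2 fold change.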

[1] = compound: C/C(=N\NC(=O)C1=CC(=CC=C1)S(=O)(=O)N2CCOCC2)/C3=C(C=CC(=C3)Cl)O
Outline: as §1

[2] = compound: C1=CC(=C(C=C1Cl)C2=NC3=NC=CN=C3C(=N2)NC4=CC=NC=C4)F
Outline: as §1

[3] = compound: C1=CC(=CC=C1C2=NC3=C(N2)C=C(C=C3)C(=O)N)OC4=CC=C(C=C4)Cl
Outline: as §1

[4] = compound: C1=CC2=C(C=CC(=C2)/C=C\3/C(=O)NC(=NCC4=CC=CS4)S3)N=C1
Outline: as §1

[5] = compound: C1=CC2=NC=CN=C2C=C1/C=C/3\C(=O)NC(=O)S3
Outline: as §1

[6] = compound: C1=CC=C(C=C1)C2=NC(=C(N2)C3=CC=NC=C3)C4=CC(=C(C=C4)Cl)O
Outline: as §1

[7] = compound: C1=CC=C2C(=C1)C3=NNC4=CC=CC(=C43)C2=O
Outline: as §1

[8] = compound: C1CCN(C1)C(=O)NC2=CC=CC(=C2)NC3=NC=C(C(=N3)NCCC4=CN=CN4)Br
Outline: as §1

[9] = compound: C1CN(CCC1(CC2=CC=C(C=C2)Cl)N)C3=NC=NC4=C3C=CN4
Outline: as §1

Measured: log2 fold change

KNTC1 (UniProt P50748)
inactive: erlotinib 0.102 | [1] 0.068 | [2] 0.029 | [3] -0.039 | [4] 0.019 | [5] 0.034 | [6] -0.065 | [7] -0.012 | [8] 0.001 | [9] -0.004

IVNS1ABP (UniProt Q9Y6Y0)
inactive: erlotinib 0.001 | [1] 0.044 | [2] -0.085 | [3] 0.073 | [4] -0.002 | [5] -0.248 | [6] 0.052 | [7] 0.291 | [8] -0.03 | [9] -0.083

KMT2D isoform 3 (UniProt O14686)
inactive: erlotinib 0.032 | [1] 0 | [2] -0.128 | [3] -0.039 | [4] 0.032 | [5] -0.039 | [6] 0.003 | [7] -0.004 | [8] -0.179 | [9] -0.122

KLF3 (UniProt P57682)
inactive: erlotinib 0.046 | [1] -0.106 | [2] -0.012 | [3] -0.07 | [4] -0.03 | [5] 0.077 | [6] -0.096 | [7] 0 | [8] 0.087 | [9] 0.041

KBTBD2 (UniProt Q8IY47)
inactive: erlotinib 0.034 | [1] -0.204 | [2] 0.036 | [3] 0.063 | [4] 0.052 | [5] -0.034 | [6] -0.002 | [7] 0.019 | [8] -0.036 | [9] 0.086

KIF23 (UniProt Q02241)
inactive: erlotinib -0.103 | [1] 0.033 | [2] -0.113 | [3] 0.162 | [4] -0.066 | [5] -0.045 | [6] -0.035 | [7] 0.061 | [8] -0.079 | [9] -0.05

KEAP1 (UniProt Q14145)
inactive: erlotinib -0.015 | [1] -0.031 | [2] 0.025 | [3] -0.021 | [4] 0.025 | [5] 0.159 | [6] -0.098 | [7] 0.023 | [8] -0.045 | [9] -0.034

KLHDC3 (UniProt Q9BQ90)
inactive: erlotinib -0.011 | [1] 0.069 | [2] 0.007 | [3] 0.08 | [4] 0.112 | [5] 0.034 | [6] -0.092 | [7] -0.052 | [8] 0.064 | [9] 0.027

KDM1A isoform 2 (UniProt O60341)
inactive: erlotinib 0.059 | [1] 0.039 | [2] 0.006 | [3] -0.028 | [4] 0.075 | [5] -0.015 | [6] 0.059 | [7] -0.026 | [8] -0.03 | [9] -0.069

KIAA1191 (UniProt Q96A73)
inactive: erlotinib 0.018 | [1] 0.025 | [2] 0.017 | [3] -0.06 | [4] 0.066 | [5] 0.075 | [6] 0.003 | [7] -0.011 | [8] 0.064 | [9] -0.055

KATNB1 (UniProt Q9BVA0)
inactive: erlotinib -0.01 | [1] 0.074 | [2] -0.012 | [3] -0.028 | [4] 0.002 | [5] 0.012 | [6] -0.059 | [7] 0.032 | [8] 0.007 | [9] -0.08

KIAA2013 isoform 2 (UniProt Q8IYS2)
inactive: erlotinib -0.014 | [1] 0.014 | [2] 0.024 | [3] 0.016 | [4] -0.026 | [5] 0.022 | [6] -0.015 | [7] 0.018 | [8] 0.039 | [9] 0.022

KLC4 isoform 3 (UniProt Q9NSK0)
inactive: erlotinib 0.086 | [1] 0.077 | [2] 0.102 | [3] 0.03 | [4] -0.029 | [5] 0.08 | [6] 0.061 | [7] 0.005 | [8] -0.005 | [9] -0.064

KIF5A (UniProt Q12840)
inactive: erlotinib -0.022 | [1] 0.018 | [2] 0.028 | [3] 0.014 | [4] 0.042 | [5] 0.018 | [6] 0.022 | [7] 0.012 | [8] 0.008 | [9] -0.032

KIF2C (UniProt Q99661)
inactive: erlotinib 0.036 | [1] 0.09 | [2] 0.036 | [3] 0.021 | [4] 0.01 | [5] -0.004 | [6] 0.043 | [7] 0.019 | [8] -0.031 | [9] -0.103

KRAS isoform 2 (UniProt P01116)
inactive: erlotinib -0.035 | [1] -0.011 | [2] 0.006 | [3] 0.029 | [4] 0.005 | [5] 0.019 | [6] 0.002 | [7] -0.03 | [8] 0.045 | [9] -0.084

KCTD9 (UniProt Q7L273)
inactive: erlotinib -0.025 | [1] 0.004 | [2] -0.014 | [3] 0.013 | [4] 0.039 | [5] -0.022 | [6] -0.031 | [7] -0.009 | [8] -0.077 | [9] 0.041

KNSTRN (UniProt Q9Y448)
inactive: erlotinib 0.004 | [1] -0.017 | [2] -0.113 | [3] -0.005 | [4] 0.004 | [5] 0.032 | [6] -0.049 | [7] -0.08 | [8] 0.025 | [9] -0.108

9 consecutive entries already listed, for reference:
KDM1A isoform 2 (UniProt O60341)
inactive: erlotinib 0.059 | [1] 0.039 | [2] 0.006 | [3] -0.028 | [4] 0.075 | [5] -0.015 | [6] 0.059 | [7] -0.026 | [8] -0.03 | [9] -0.069

KIAA1191 (UniProt Q96A73)
inactive: erlotinib 0.018 | [1] 0.025 | [2] 0.017 | [3] -0.06 | [4] 0.066 | [5] 0.075 | [6] 0.003 | [7] -0.011 | [8] 0.064 | [9] -0.055

KATNB1 (UniProt Q9BVA0)
inactive: erlotinib -0.01 | [1] 0.074 | [2] -0.012 | [3] -0.028 | [4] 0.002 | [5] 0.012 | [6] -0.059 | [7] 0.032 | [8] 0.007 | [9] -0.08

KIAA2013 isoform 2 (UniProt Q8IYS2)
inactive: erlotinib -0.014 | [1] 0.014 | [2] 0.024 | [3] 0.016 | [4] -0.026 | [5] 0.022 | [6] -0.015 | [7] 0.018 | [8] 0.039 | [9] 0.022

KLC4 isoform 3 (UniProt Q9NSK0)
inactive: erlotinib 0.086 | [1] 0.077 | [2] 0.102 | [3] 0.03 | [4] -0.029 | [5] 0.08 | [6] 0.061 | [7] 0.005 | [8] -0.005 | [9] -0.064

KIF5A (UniProt Q12840)
inactive: erlotinib -0.022 | [1] 0.018 | [2] 0.028 | [3] 0.014 | [4] 0.042 | [5] 0.018 | [6] 0.022 | [7] 0.012 | [8] 0.008 | [9] -0.032

KIF2C (UniProt Q99661)
inactive: erlotinib 0.036 | [1] 0.09 | [2] 0.036 | [3] 0.021 | [4] 0.01 | [5] -0.004 | [6] 0.043 | [7] 0.019 | [8] -0.031 | [9] -0.103

KRAS isoform 2 (UniProt P01116)
inactive: erlotinib -0.035 | [1] -0.011 | [2] 0.006 | [3] 0.029 | [4] 0.005 | [5] 0.019 | [6] 0.002 | [7] -0.03 | [8] 0.045 | [9] -0.084

KCTD9 (UniProt Q7L273)
inactive: erlotinib -0.025 | [1] 0.004 | [2] -0.014 | [3] 0.013 | [4] 0.039 | [5] -0.022 | [6] -0.031 | [7] -0.009 | [8] -0.077 | [9] 0.041

Following part.

KDSR (UniProt Q06136)
inactive: erlotinib -0.04 | [1] 0.062 | [2] 0.075 | [3] 0.003 | [4] -0.014 | [5] 0.053 | [6] -0.011 | [7] -0.027 | [8] -0.01 | [9] 0.099

KHSRP (UniProt Q92945)
inactive: erlotinib 0.034 | [1] -0.004 | [2] -0.012 | [3] 0.008 | [4] 0.011 | [5] 0.027 | [6] -0.068 | [7] 0.005 | [8] 0.006 | [9] 0.023

KLC1 isoform 6 (UniProt Q07866)
inactive: erlotinib -0.016 | [1] 0.054 | [2] 0.052 | [3] 0.002 | [4] 0.023 | [5] 0.051 | [6] -0.019 | [7] 0.001 | [8] 0.014 | [9] -0.018

KIAA1324L (UniProt A8MWY0)
inactive: erlotinib 0.036 | [1] -0.077 | [2] 0.003 | [3] 0.05 | [4] 0.092 | [5] -0.068 | [6] 0.003 | [7] -0.042 | [8] -0.03 | [9] 0.064

KIAA0100 (UniProt Q14667)
inactive: erlotinib 0.231 | [1] -0.095 | [2] 0.009 | [3] -0.107 | [4] 0.148 | [5] 0.029 | [6] 0.044 | [7] 0.013 | [8] -0.013 | [9] 0.111

KBTBD4 isoform 2 (UniProt Q9NVX7)
inactive: erlotinib -0.048 | [1] 0.032 | [2] 0.083 | [3] 0.042 | [4] 0.048 | [5] -0.022 | [6] -0.003 | [7] 0.133 | [8] 0.1 | [9] 0.054

KIAA1522 isoform 2 (UniProt Q9P206)
inactive: erlotinib 0.065 | [1] 0.105 | [2] -0.251 | [3] -0.009 | [4] -0.038 | [5] -0.031 | [6] 0.008 | [7] -0.105 | [8] -0.026 | [9] -0.173

JPT1 (UniProt Q9UK76)
inactive: erlotinib 0.015 | [1] -0.031 | [2] 0.047 | [3] 0.014 | [4] -0.063 | [5] 0.005 | [6] -0.023 | [7] 0.055 | [8] -0.039 | [9] 0.048

KLC2 (UniProt Q9H0B6)
inactive: erlotinib 0.036 | [1] 0.063 | [2] 0.008 | [3] -0.044 | [4] 0.078 | [5] 0.025 | [6] -0.039 | [7] 0.006 | [8] -0.063 | [9] -0.007

JUNB (UniProt P17275)
inactive: erlotinib 0.006 | [1] -0.209 | [2] -0.11 | [3] 0.078 | [4] 0.424 | [5] 0.013 | [6] -0.419 | [7] -0.161 | [8] -0.068 | [9] 0.081

KIF3A (UniProt Q9Y496)
inactive: erlotinib -0.222 | [1] -0.06 | [2] -0.069 | [3] -0.122 | [4] -0.049 | [5] 0.034 | [6] -0.062 | [7] -0.025 | [8] -0.011 | [9] -0.067

KPNA4 (UniProt O00629)
inactive: erlotinib 0.016 | [1] 0.023 | [2] 0.037 | [3] 0.023 | [4] 0.005 | [5] 0.03 | [6] 0.027 | [7] -0.024 | [8] 0.003 | [9] 0.003
